In publication PMC12207533, “Structure-guided design of a methyltransferase-like 3 (METTL3) proteolysis targeting chimera (PROTAC) incorporating an indole–nicotinamide chemotype” (RSC Medicinal Chemistry, 2025):

Tested on: VCB (VHL, elongin B, elongin C)
Assay: FP displacement assay with VCB (binary and ternary KD, cooperativity)
Assay type: binding
Conditions: with and without METTL3 (12 μM)
Procedure: Fluorescence polarization (FP) displacement assays with METTL3/14 (ref. [36]) and VCB[38–40] were performed following previous protocols with slight adaptations. All experiments were conducted in black Greiner 96-well half-area plates using a Tecan Spark 10 M plate reader, equipped with polarization filters coupled to a monochromator setup (λex = 480 nm, λem = 530 nm). Reaction mixtures for METTL3/14 contained 300 nM recombinant enzyme, 20 nM FAM-labelled displacement tracer (STM-FL[36]), and the test compounds at varying concentrations in 25 mM Tris HCl, pH 7.5, 100 mM NaCl, and 10% DMSO. For VCB, the mixtures contained 40 nM recombinant enzyme, 10 nM FAM-labelled probe (FAM-DEALAHyp[…], Tocris Bioscience), and the tested compounds, at varying concentrations, in 50 mM Tris, pH 7.5, 200 mM NaCl, 2 mM DTT, and 10% DMSO. […] All measurements were performed at least as technical triplicates. Polarization values (mP) were determined from polarization-specific parallel and orthogonal fluorescence intensities using the Tecan in-built calculation routine. Using GraphPad Prism 8.0.1, the FP values were normalized, and KD values were calculated using a 4-parameter Hill equation: y(% probe bound) = bottom + ([ligand]slope) × (top–bottom)/([ligand]slope + KD slope).

## Cc1ncsc1-c1ccc([C@H](C)NC(=O)[C@@H]2C[C@@H](O)CN2C(=O)[C@@H](NC(=O)CCC#Cc2ccc(CNc3cc(N4CCC5(CC4)CN(c4cc(F)c(CN6CCC(C)(C)CC6)cc4F)CC(=O)N5)ncn3)cc2)C(C)(C)C)cc1 [WD6305]
  cooperativity factor α (KD binary/KD ternary): 23

## Cc1ncsc1-c1ccc(CNC(=O)[C@@H]2C[C@@H](O)CN2C(=O)[C@@H](NC(=O)CCc2ccc(-c3ccc(COc4cncc(C(=O)NCc5ccc6cc(CN7CCC(C)(C)CC7)[nH]c6c5)c4)cc3)cc2)C(C)(C)C)cc1 [compound 41]
  cooperativity factor α (KD binary/KD ternary): 4.5
